Construct, isoform or probe ends are uncertain for at least one entry.
System: RNA polymerase holoenzyme (Escherichia coli)
Assay: EMSA
Settings: RNAP alone; commercial protein; label: FAM; probe letters rebuilt from the primers and the genome

Does “AGTTCGGTGCGCAGGAAGGACATGGGGGACACTCCAGGGACAAGAACGACAGTCCTGCGGACAGCGCGCAGGGGGCACTAGTGTGCGGGAAAGCGACCGCTCCCGCAGCCGCGATGTGATCGGTGCGGCAATGGTGTTTTCTGTGGGGACGATCACACCACGCGACGCGCGCACAGACCAAGATGCCCGCCTTACCGCGCTCGGGTGTCGAGCCCGGTTCTCTAGGGAGATCACCATGTCCATATTCAGGACCGCAAGCACGCTCGCTTTGGCCACCGCCCTCGCACTGGCCGCCGGGCCGGCCTTCAGCTATTCCA (double strand) [P-191/+126]” bind?
Result: binds

Reference: PMC6430473
